Measured values: paper PMC8675926
No constants are given. Whether binding was seen depends on the method and setting. Binding seen in cells or lysates may run through a third protein. Some results given as binding are weak or reduced against the parent protein; the word gives no strength. Where a sequence is shown, tags or fusion partners need not be part of it.

Amino acid sequences for entries named in this document (tags omitted). A change or cut given only in a name is not applied to a line headed by its entry.
UniProt Q12692: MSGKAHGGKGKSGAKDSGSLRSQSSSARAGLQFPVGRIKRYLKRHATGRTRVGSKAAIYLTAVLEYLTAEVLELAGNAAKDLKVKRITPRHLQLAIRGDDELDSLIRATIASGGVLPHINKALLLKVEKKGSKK

How the values were obtained:
[1] = molecular target: T1, Chz1, VSV-tagged (histone chaperone) (S. cerevisiae) (UniProt P40019); assay: co-IP; reciprocal: VSV-tagged Chz1 precipitated from yeast lysates with VSV agarose beads for 16 hours in TAP-IP buffer; blot with anti-FLAG; in triplicate
T1 sequence: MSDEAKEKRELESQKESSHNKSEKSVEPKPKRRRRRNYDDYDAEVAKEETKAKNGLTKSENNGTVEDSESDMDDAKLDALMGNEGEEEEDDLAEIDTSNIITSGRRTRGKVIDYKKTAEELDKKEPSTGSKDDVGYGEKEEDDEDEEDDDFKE

[2] = molecular target: H2A.Z (HTZ1), C-terminally 3xFLAG tagged (S. cerevisiae), Q12692; assay: co-IP; FLAG-tagged histone constructs precipitated from yeast lysates with FLAG M2 agarose beads for 1.5 hours in TAP-IP buffer (50 mM Tris pH 7.8, 150 mM NaCl, 0.15% NP-40); blots with anti-VSV, anti-Nap1, anti-FLAG; in triplicate; settings: remark: other sources report otherwise
[3] = molecular target: H2A.Z (HTZ1), C-terminally 3xFLAG tagged (S. cerevisiae) (UniProt Q12692); assay: as above

Molecule: H2A.Z (HTZ1), C-terminally 3xFLAG tagged (from UniProt Q12692 1-134) (other; other documents disagree on this pair)
- binding [1]: binds

B1: Chz1, VSV-tagged (histone chaperone), P40019 1-153 (protein)
chain: MSDEAKEKRELESQKESSHNKSEKSVEPKPKRRRRRNYDDYDAEVAKEETKAKNGLTKSENNGTVEDSESDMDDAKLDALMGNEGEEEEDDLAEIDTSNIITSGRRTRGKVIDYKKTAEELDKKEPSTGSKDDVGYGEKEEDDEDEEDDDFKE
- binding [2]: binds

B2: Nap1 (histone chaperone) (protein, UniProt P25293 1-417)
chain: MSDPIRTKPKSSMQIDNAPTPHNTPASVLNPSYLKNGNPVRAQAQEQDDKIGTINEEDILANQPLLLQSIQDRLGSLVGQDSGYVGGLPKNVKEKLLSLKTLQSELFEVEKEFQVEMFELENKFLQKYKPIWEQRSRIISGQEQPKPEQIAKGQEIVESLNETELLVDEEEKAQNDSEEEQVKGIPSFWLTALENLPIVCDTITDRDAEVLEYLQDIGLEYLTDGRPGFKLLFRFDSSANPFFTNDILCKTYFYQKELGYSGDFIYDHAEGCEISWKDNAHNVTVDLEMRKQRNKTTKQVRTIEKITPIESFFNFFDPPKIQNEDQDEELEEDLEERLALDYSIGEQLKDKLIPRAVDWFTGAALEFEFEEDEEEADEDEDEEEDDDHGLEDDDGESAEEQDDFAGRPEQAPECKQS
- binding [3]: binds
